Test results: paper PMC5882868
These are yes or no findings as the source states them, for the method shown. Binding seen in cells or lysates may run through a third protein. Some results given as binding are weak or reduced against the parent protein; the word gives no strength.

Protein sequences, listed by entry. Tags and fused reporters are not part of them.
UniProt Q63746: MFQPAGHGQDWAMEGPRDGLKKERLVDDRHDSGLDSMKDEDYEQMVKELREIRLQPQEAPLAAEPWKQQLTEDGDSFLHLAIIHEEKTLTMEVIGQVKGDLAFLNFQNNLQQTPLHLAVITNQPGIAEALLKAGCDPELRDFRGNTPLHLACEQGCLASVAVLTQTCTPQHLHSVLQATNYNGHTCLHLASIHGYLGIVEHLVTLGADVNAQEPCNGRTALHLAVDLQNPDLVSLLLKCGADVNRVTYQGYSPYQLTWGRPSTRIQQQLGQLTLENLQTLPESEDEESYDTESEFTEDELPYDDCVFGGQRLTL
UniProt P29066: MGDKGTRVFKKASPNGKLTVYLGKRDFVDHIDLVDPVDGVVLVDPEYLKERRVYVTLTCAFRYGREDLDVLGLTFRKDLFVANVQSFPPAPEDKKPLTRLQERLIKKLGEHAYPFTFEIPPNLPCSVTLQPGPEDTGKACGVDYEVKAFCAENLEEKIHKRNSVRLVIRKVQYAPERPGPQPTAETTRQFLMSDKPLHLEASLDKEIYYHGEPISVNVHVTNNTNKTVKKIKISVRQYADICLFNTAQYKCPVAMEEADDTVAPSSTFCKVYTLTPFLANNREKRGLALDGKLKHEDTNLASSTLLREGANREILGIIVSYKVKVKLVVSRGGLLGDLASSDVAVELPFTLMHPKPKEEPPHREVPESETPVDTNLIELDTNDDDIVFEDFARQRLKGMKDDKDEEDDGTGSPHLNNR

Molecular target: IκB-α (rat (endogenous in RVLM tissue)) (UniProt Q63746)
Test: co-IP; RVLM tissue lysates of four groups (WKY or SHR, each with AAV-GFP or AAV-Arrb1); legend: IP by anti-IκBα antibody, Western blot by anti-β-arrestin1 antibody; Protein A/G plus agarose beads, antibody overnight at 4°C

binding: binds
Substance: β-arrestin1 (from UniProt P29066 1-418)
